The other results are listed elsewhere or left out. The main result of the screen is listed elsewhere. These columns were measured beside it and carry no call. Most of these compounds were active or inconclusive in the main read-out, so they are no random draw. Potencies come from curve fits of mixed quality, noted in brackets.
Assay: qHTS Assay to Find Inhibitors of Chronic Active B-Cell Receptor Signaling
Details: ABC-DLBCL IkBa-CBG/CBR reporter, luminescence ratio (green luciferase fused to IkBa over red control in TMD8 lymphoma cells), 4 h
Outline: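 Concentration-response series (up to 46 uM) were applied to TMD8 dual-reporter cells for 4 h at 37C with doxycycline. Green/red ratio, after filter-overlap correction, defined %Activity; red signal alone was normalised to basal cells and zero luminescence.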

[1] = measured here: CBR red luminescence, cell number
[2] = measured here: IkBa-CBG green luminescence

SMILES: CCN1CCN(Cc2ccc(NC(=O)c3ccc(C)c(NC(=O)c4cccc(-c5cn[nH]c(=O)c5)c4)c3)cc2C(F)(F)F)CC1
- AC50 [1]: 11.2 µM [falling, partial curve, poor fit]

SMILES: CCn1c(NCc2ccco2)nc2c1c(=O)n(C)c(=O)n2C
- AC50 [1]: 0.517 µM [falling, full curve, poor fit]

SMILES: CC(=O)Nc1cc(Cl)ccc1OS(=O)(=O)c1ccc(C)cc1
- AC50 [1]: 0.082 µM [rising, full curve, poor fit]

SMILES: CC(=O)Nc1ccc(N=C(C2=C(O)c3ccccc3C2=O)c2ccccc2)cc1
- AC50 [1]: 22.4 µM [falling, single point]

SMILES: Cc1cc2nc(/C=C/c3cccnc3)[nH]c2cc1C
- AC50 [1]: 1.58 µM [rising, partial curve, poor fit]
- AC50 [2]: 6.31 µM [falling, partial curve]

SMILES: O=S(=O)(NCc1ccccc1)c1ccc(S(=O)(=O)N(Cc2ccccn2)C2CCCC2)cc1
- AC50 [1]: 0.231 µM [falling, full curve, poor fit]
- AC50 [2]: 23.1 µM [rising, single point]

SMILES: CC(=O)c1cccc(NC(=O)/C(=C\c2cccnc2)NC(=O)c2ccc(C)cc2)c1
- AC50 [1]: 0.1 µM [rising, full curve, poor fit]

SMILES: O=C1OC(C(=O)Nc2ccccc2)Cc2ccccc21 (stereo unspecified)
- AC50 [1]: 14.1 µM [falling, single point]

SMILES: CN(CC(=O)Nc1ccccc1Cl)C(=O)c1ccccc1SCC(=O)N1CCCC1
- AC50 [1]: 29.1 µM [rising, single point]

SMILES: CC(C)(C)NC(=O)CC1C[C@H](C(=O)N2CCCCC2)[C@@]2(C)c3[nH]c4ccccc4c3CCN2C1=O (stereo partly specified)
- AC50 [1]: 1.46 µM [rising, partial curve, poor fit]

SMILES: COc1ccccc1NCC(=O)NN=C1CCS(=O)(=O)c2ccc(F)cc21
- AC50 [1]: 29.1 µM [falling, single point]

SMILES: CC(=O)Nc1cc2c(cc1NC(=O)Cn1nc(-c3ccc4c(c3)OCCO4)ccc1=O)OCCO2
- AC50 [1]: 0.58 µM [falling, partial curve]

SMILES: CC12COC3(P(=O)(c4ccccc4)c4ccccc4)CC1CCC23CP(=O)(c1ccccc1)c1ccccc1 (stereo unspecified)
- AC50 [1]: 15.8 µM [falling, single point]

SMILES: CCOC(=O)c1ccc(N2C(=O)CC(SCC(=O)Nc3ccc(S(N)(=O)=O)cc3)C2=O)cc1 (stereo unspecified)
- AC50 [1]: 22.4 µM [falling, partial curve, poor fit]

SMILES: O=C(CCCN1C(=O)/C(=C/c2ccccc2Cl)SC1=S)NNC(=O)c1ccncc1
- AC50 [1]: 1.12 µM [falling, full curve]

SMILES: COC(=O)c1ccsc1NC(=O)CS(=O)(=O)c1ccccc1
- AC50 [1]: 0.58 µM [falling, full curve, poor fit]
- AC50 [2]: 25.9 µM [rising, partial curve, poor fit]

SMILES: COc1ccccc1NC(=O)c1ccc2nc(C)c(C)nc2c1
- AC50 [1]: 6.31 µM [falling, partial curve, poor fit]

SMILES: COc1cc(C(=O)OC(C)CN2CCOCC2)cc(OC)c1OC (stereo unspecified)
- AC50 [1]: 12.6 µM [rising, partial curve, poor fit]

SMILES: O=C(NNC1=NS(=O)(=O)c2ccccc21)c1ccc([N+](=O)[O-])cc1
- AC50 [1]: 10 µM [falling, partial curve, poor fit]

SMILES: CCc1ccc(C(C)NC(=S)NCc2ccc(F)cc2)cc1 (stereo unspecified)
- AC50 [1]: 35.5 µM [falling, single point]

SMILES: CC(C)CCN1C(=O)c2ccc(C(=O)OCC(=O)N(CC(C)C)C3CCS(=O)(=O)C3)cc2C1=O (stereo unspecified)
- AC50 [1]: 25.9 µM [falling, partial curve, poor fit]

SMILES: O=C(NCCc1ccccc1)C1(c2ccccc2)CC1(Cl)Cl (stereo unspecified)
- AC50 [1]: 1.12 µM [rising, partial curve, poor fit]

SMILES: CCOC(=O)C1=C(O)/C(=C/c2cn(CC(=O)N3CCCC3)c3ccccc23)SC1=Nc1ccccc1
- AC50 [1]: 11.6 µM [rising, partial curve, poor fit]

SMILES: CCCc1n[nH]c2c1/C(=N\OCC)CC(C)(C)C2
- AC50 [1]: 5.62 µM [falling, partial curve, poor fit]

SMILES: O=c1[nH]c(NNC(=S)NC2CCCCC2)nc2c1C1(CCCC1)Cc1ccccc1-2
- AC50 [1]: 1.58 µM [falling, partial curve, poor fit]

SMILES: COc1ccc(OC)c(C(c2nnnn2C2CCCC2)N2CCc3ccccc3C2)c1 (stereo unspecified)
- AC50 [1]: 23.1 µM [falling, single point]

SMILES: Cc1cccc2sc(NC(=O)CN(C)S(=O)(=O)c3cccs3)nc12
- AC50 [1]: 2.59 µM [falling, full curve]

SMILES: O=C(Nc1nc(-c2ccco2)cs1)c1ccccc1
- AC50 [1]: 8.91 µM [falling, partial curve, poor fit]

SMILES: O=c1c2ccccc2nnn1-c1ccc(Br)cc1
- AC50 [1]: 14.1 µM [rising, partial curve, poor fit]

SMILES: CCS(=O)(=O)c1ccc(C(=O)N2CCN(c3nc4c(OC)ccc(C)c4s3)CC2)cc1
- AC50 [1]: 1 µM [rising, partial curve, poor fit]

SMILES: Cc1ccc(NC(=O)CNC(=O)c2ccco2)nc1
- AC50 [1]: 3.98 µM [rising, single point]

SMILES: O=C(/C=C/c1cc([N+](=O)[O-])ccc1OC(F)F)Nc1ccc(OC(F)F)cc1
- AC50 [1]: 5.01 µM [rising, full curve, poor fit]

SMILES: Brc1ccc(-c2cnc3n2CCCC3)cc1
- AC50 [1]: 3.66 µM [rising, full curve]

SMILES: COc1ccc(C(=O)NCc2cn3cccc(C)c3n2)cc1OC
- AC50 [2]: 0.562 µM [rising, full curve, poor fit]

SMILES: C=CCn1c(=O)c2c(nc3n2CC(C)CN3CCc2ccccc2)n(C)c1=O (stereo unspecified)
- AC50 [1]: 7.08 µM [falling, partial curve]

SMILES: O=C(c1ccc(NS(=O)(=O)c2ccc(Cl)c(Cl)c2)cc1)N1CCOCC1
- AC50 [1]: 32.6 µM [falling, single point]

SMILES: COc1cc([C@@H]2c3cc4c(cc3[C@H](O)[C@H]3COC(=O)[C@H]23)OCO4)cc(OC)c1OC
- AC50 [1]: 1.03 µM [rising, full curve]
- AC50 [2]: 0.411 µM [falling, partial curve]
